The text below walks through data of US10004222B2, “Small molecule ice recrystallization inhibitors and methods of use thereof” (THE UNIVERSITY OF OTTAWA, priority 2012, dated 2018).

The nature of this data set: solid-state NMR, 2H spin-lattice relaxation rate (R1) of frozen D2O.
Where [1] appears, read: corrected to total overall proton concentration of 1234 mM (compounds 3, 4: 44 mM; compound 5: 42 mM frozen hydrogel; sugars: 103 mM).

SMILES strings stand for the structures.

On to `O=C[C@H](O)[C@@H](O)[C@@H](O)[C@H](O)CO` [D-galactose, reference compound], for which the “R1 of frozen D2O” value under setting [1] turned out to be 0.0154 ± 0.0003 s⁻¹. On the same count and under the same terms, for `O=C[C@H](O)[C@@H](O)[C@H](O)[C@H](O)CO` [D-glucose, reference compound] the value was 0.0132 ± 0.0001 s⁻¹.

As to `CCCCCCCCO[C@@H]1OC(CO)[C@@H](O)[C@H](O)C1O` (stereo partly drawn) [compound 3, n-octyl-β-D-glucopyranoside], the “R1 of frozen D2O” value under setting [1] was 0.0190 ± 0.0002 s⁻¹. Consider `CCCCCCCCO[C@@H]1OC(CO)[C@H](O)[C@H](O)C1O` (stereo partly drawn) [compound 4, n-octyl-β-D-galactopyranoside], for which the “R1 of frozen D2O” value under setting [1] was 0.0209 ± 0.0002 s⁻¹. Same read-out and setting: the same measure for `CCCCCCCCNC(=O)[C@H](O)[C@@H](O)[C@H](O)[C@H](O)CO` [compound 5, N-octyl-D-gluconamide]: 0.0310 ± 0.0005 s⁻¹. Consider `CCCCCCCCNC(=O)[C@H](O)[C@@H](O)[C@@H](O)[C@H](O)CO` [compound 6, N-octyl-D-galactonamide], for which the “R1 of frozen D2O” value (16 mM frozen hydrogel, total overall proton concentration 479 mM) turned out to be 0.030 ± 0.001 s⁻¹.
